These are yes or no findings as the source states them, for the method shown. In cells and extracts the contact can be indirect. A yes stands for co-enrichment or nearness to the bait. Other partners may have been found.
Target: PRMT3 (human (endogenous in SW480 and HEK293T)) (UniProt O60678)
Test: affinity purification with mass spectrometry; anti-PRMT3 immunoprecipitates of HEK293T cell lysates, LC-MS; combined with a public mass spectrometry dataset

By UniProt entry, the sequences of proteins in these tests, tags left out.
UniProt O60678: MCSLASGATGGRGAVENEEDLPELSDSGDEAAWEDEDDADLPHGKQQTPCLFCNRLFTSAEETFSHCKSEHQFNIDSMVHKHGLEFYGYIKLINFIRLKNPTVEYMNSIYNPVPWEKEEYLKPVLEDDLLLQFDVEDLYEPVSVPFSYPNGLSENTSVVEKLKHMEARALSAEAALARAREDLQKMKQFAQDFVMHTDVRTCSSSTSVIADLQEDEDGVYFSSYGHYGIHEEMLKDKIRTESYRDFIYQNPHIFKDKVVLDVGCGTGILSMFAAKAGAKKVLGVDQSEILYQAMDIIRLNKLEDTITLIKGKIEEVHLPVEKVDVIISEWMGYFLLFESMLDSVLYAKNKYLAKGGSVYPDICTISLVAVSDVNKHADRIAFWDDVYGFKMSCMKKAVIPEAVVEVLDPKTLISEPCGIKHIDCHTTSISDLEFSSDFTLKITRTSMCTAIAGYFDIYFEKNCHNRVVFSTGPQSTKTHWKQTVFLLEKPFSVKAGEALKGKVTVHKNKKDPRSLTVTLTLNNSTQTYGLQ
UniProt P67809: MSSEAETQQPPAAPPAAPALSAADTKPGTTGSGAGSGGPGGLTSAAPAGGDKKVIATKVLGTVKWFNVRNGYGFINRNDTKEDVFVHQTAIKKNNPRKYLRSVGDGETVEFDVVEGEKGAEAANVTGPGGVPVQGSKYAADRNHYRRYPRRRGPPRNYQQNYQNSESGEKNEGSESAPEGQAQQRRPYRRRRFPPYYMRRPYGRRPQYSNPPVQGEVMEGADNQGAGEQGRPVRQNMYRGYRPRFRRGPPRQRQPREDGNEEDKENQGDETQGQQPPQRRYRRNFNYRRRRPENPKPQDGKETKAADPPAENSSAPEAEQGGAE

## Y-box binding protein 1 (YBX1) (from UniProt P67809 1-324)
  binding: binds
